Source: patent US20210261642A1, “SOLUBILITY OF GLP-1 PEPTIDE” (Novo Nordisk A/S, priority 2017, published 2021)
The source gives many values for each of these; only a part stands here.

Experiment: Assay (I): Determination of Solubility (96-well plate, pH 3.0-11.0, organic solvent 0-70% w/w, UV absorption at 280 nm)
Assay type: physicochemical
Settings: MeCN 70.0% w/w; for GLP-1 peptide concentration: Method 2 (precipitation), 5° C.
Method: Assay (I): Determination of Solubility
96-Well Plate Preparation
96-well plates containing target peptide in a solid form were prepared in one of two ways:
Method 1 (evaporation): Addition of 100 μl stock solution of said peptide at a concentration of 4-6 mg/ml to each well of a 96-well half area plate (150 μl well size). Subsequently the solvent was evaporated by applying a vacuum until the solvent was completely removed.
Method 2 (precipitation): Addition of a certain volume of a stock solution of said peptide containing to each well of a 96-well half area plate followed by the addition of a certain volume of concentrated phosphoric acid to obtain a pH of 4.6 followed by addition of a certain volume of ethanol resulting in a final ethanol concentration of 20% v/v. Subsequently the plate was stored at 4° C. for 1 h and then centrifuged at 4,000 rpm for 20 min. Finally the supernatant was removed. The concentration of the stock solution was chosen in a way that the final amount of peptide after supernatant removal was >0.4 mg per well.
In both cases the stock solution was prepared by adding de-ionized water to a certain amount of powder of said peptide followed by a stepwise addition of small amounts of a concentrated sodium hydroxide solution until said peptide was completely in solution.
To determine solubility of a target peptide at different pH and organic solvent concentrations, two different buffer systems were used in independent experiments to cover the whole range from pH 3.0 to pH 11.0. Buffer system 1 covers pH 3.0-7.5 and buffer system 2 covers pH 7.5-11.0. For each buffer system 96 different solvent compositions were premixed in the following way: • 1. A low pH buffer (adjusted to either pH 3.0 or pH 7.5) and a high pH buffer (adjusted to either pH 7.5 or pH 11.0) were mixed at 8 different ratios to obtain values between pH 3.0 and pH 7.5 or pH 7.5 and pH 11.0, respectively. The total volume after mixing was 300 μl. • 2. 12 different amounts of organic solvent were then added to these buffers to obtain organic solvent (e.g. ethanol) concentrations between 0 and 70% w/w. • 3. Water was then added to obtain a total weight of 1.0 g of solvent in each well.
After preparing the 96 different solvent systems, 100 μl of each system was transferred to the 96-well plate containing the solid form of the target peptide (prepared as described in the section “96-well plate preparation”). The plate was then stored at a given temperature (between 5° C. and 70° C.) for a given time on a rotating shaker set to 400 rpm. At regular time intervals the plate was centrifuged (4,000 rpm for 10 min) and a 10 μl sample was taken from each well. The samples were then analysed by UV absorption at 280 nm for peptide quantification. Peptide concentration results are given as UV absorption at 280 nm of the sample subtracted UV absorption at 280 nm of a well comprising 10 μl water.
The buffers used were as follows: • Buffer system 1 (for the pH range from pH 3.0-7.5)
• Buffer system 2 (for the pH ranae from pH 7.5-11.0)
Solubility of liraglutide was determined using Assay (I) described herein. Liraglutide was prepared using Method 1 (evaporation) or Method 2 (precipitation) as described in subsection “96-well plate preparation”.

[1] = pH 8.0, 70° C., Method 1 (evaporation)
[2] = pH 8.5, 70° C., Method 1 (evaporation)
[3] = pH 9.0, 70° C., Method 1 (evaporation)
[4] = pH 9.5, 70° C., Method 1 (evaporation)
[5] = pH 10.0, 70° C., Method 1 (evaporation)
[6] = pH 10.5, 70° C., Method 1 (evaporation)
[7] = pH 11.0, 70° C., Method 1 (evaporation)

- Peptide concentration after 24 h (pH 3.0, RT, Method 1): 0.8 mg/mL
- Peptide concentration after 5 min (pH 3.6, 5° C., Method 1): 0.2 mg/mL
- Peptide concentration after 180 min (pH 3.6, 5° C., Method 1): 0.4 mg/mL
- Peptide concentration after 24 h (pH 3.6, 5° C., Method 1): 0.6 mg/mL
- Peptide concentration after 5 min (pH 3.6, 70° C., Method 1): 0.4 mg/mL
- Peptide concentration after 180 min (pH 3.6, 70° C., Method 1): 2.5 mg/mL
- Peptide concentration after 5 min (pH 3.6, RT, Method 1): 0.2 mg/mL
- Peptide concentration after 180 min (pH 3.6, RT, Method 1): 0.3 mg/mL
- Peptide concentration after 24 h (pH 3.6, RT, Method 1): 0.4 mg/mL
- Peptide concentration after 5 min (pH 4.3, 5° C., Method 1): 0.2 mg/mL
- Peptide concentration after 180 min (pH 4.3, 5° C., Method 1): 0.3 mg/mL
- Peptide concentration after 24 h (pH 4.3, 5° C., Method 1): 0.5 mg/mL
- Peptide concentration after 5 min (pH 4.3, 70° C., Method 1): 0.5 mg/mL
- Peptide concentration after 180 min (pH 4.3, 70° C., Method 1): 2.4 mg/mL
- Peptide concentration after 5 min (pH 4.3, RT, Method 1): 0.2 mg/mL
- Peptide concentration after 180 min (pH 4.3, RT, Method 1): 0.3 mg/mL
- Peptide concentration after 24 h (pH 4.3, RT, Method 1): 0.3 mg/mL
- Peptide concentration after 5 min (pH 4.9, 5° C., Method 1): 0.2 mg/mL
- Peptide concentration after 180 min (pH 4.9, 5° C., Method 1): 0.3 mg/mL
- Peptide concentration after 24 h (pH 4.9, 5° C., Method 1): 0.5 mg/mL
- Peptide concentration after 5 min (pH 4.9, 70° C., Method 1): 0.5 mg/mL
- Peptide concentration after 180 min (pH 4.9, 70° C., Method 1): 2.4 mg/mL
- Peptide concentration after 5 min (pH 4.9, RT, Method 1): 0.2 mg/mL
- Peptide concentration after 180 min (pH 4.9, RT, Method 1): 0.3 mg/mL
- Peptide concentration after 24 h (pH 4.9, RT, Method 1): 0.3 mg/mL
- Peptide concentration after 5 min (pH 5.6, 70° C., Method 1): 0.5 mg/mL
- Peptide concentration after 180 min (pH 5.6, 70° C., Method 1): 2.6 mg/mL
- Peptide concentration after 5 min (pH 5.6, RT, Method 1): 0.2 mg/mL
- Peptide concentration after 180 min (pH 5.6, RT, Method 1): 0.2 mg/mL
- Peptide concentration after 24 h (pH 5.6, RT, Method 1): 0.3 mg/mL
- Peptide concentration after 5 min (pH 6.2, 70° C., Method 1): 0.5 mg/mL
- Peptide concentration after 180 min (pH 6.2, 70° C., Method 1): 3.7 mg/mL
- Peptide concentration after 5 min (pH 6.2, RT, Method 1): 0.2 mg/mL
- Peptide concentration after 180 min (pH 6.2, RT, Method 1): 0.3 mg/mL
- Peptide concentration after 24 h (pH 6.2, RT, Method 1): 0.5 mg/mL
- Peptide concentration after 5 min (pH 6.9, 70° C., Method 1): 0.5 mg/mL
- Peptide concentration after 180 min (pH 6.9, 70° C., Method 1): 3.6 mg/mL
- Peptide concentration after 5 min (pH 6.9, RT, Method 1): 0.2 mg/mL
- Peptide concentration after 180 min (pH 6.9, RT, Method 1): 0.2 mg/mL
- Peptide concentration after 24 h (pH 6.9, RT, Method 1): 0.4 mg/mL
- Peptide concentration after 5 min (pH 7.5, 70° C., Method 1): 0.7 mg/mL
- Peptide concentration after 180 min (pH 7.5, 70° C., Method 1): 3.3 mg/mL
- Peptide concentration after 5 min (pH 7.5, RT, Method 1): 0.3 mg/mL
- Peptide concentration after 180 min (pH 7.5, RT, Method 1): 0.8 mg/mL
- Peptide concentration after 24 h (pH 7.5, RT, Method 1): 1.9 mg/mL
- Peptide concentration after 5 min [1]: 1.2 mg/mL
- Peptide concentration after 180 min [1]: 3.8 mg/mL
- Peptide concentration after 5 min (pH 8.0, RT, Method 1): 0.2 mg/mL
- Peptide concentration after 180 min (pH 8.0, RT, Method 1): 0.9 mg/mL
- Peptide concentration after 24 h (pH 8.0, RT, Method 1): 1.9 mg/mL
- Peptide concentration after 5 min [2]: 0.8 mg/mL
- Peptide concentration after 180 min [2]: 3.5 mg/mL
- Peptide concentration after 5 min (pH 8.5, RT, Method 1): 0.2 mg/mL
- Peptide concentration after 180 min (pH 8.5, RT, Method 1): 0.5 mg/mL
- Peptide concentration after 24 h (pH 8.5, RT, Method 1): 1.6 mg/mL
- Peptide concentration after 5 min [3]: 0.9 mg/mL
- Peptide concentration after 180 min [3]: >4.0 mg/mL
- Peptide concentration after 5 min (pH 9.0, RT, Method 1): 0.2 mg/mL
- Peptide concentration after 180 min (pH 9.0, RT, Method 1): 1.0 mg/mL
- Peptide concentration after 24 h (pH 9.0, RT, Method 1): 2.5 mg/mL
- Peptide concentration after 5 min [4]: 1.0 mg/mL
- Peptide concentration after 180 min [4]: 3.4 mg/mL
- Peptide concentration after 5 min (pH 9.5, RT, Method 1): 0.2 mg/mL
- Peptide concentration after 180 min (pH 9.5, RT, Method 1): 0.4 mg/mL
- Peptide concentration after 24 h (pH 9.5, RT, Method 1): 1.6 mg/mL
- Peptide concentration after 5 min [5]: 0.5 mg/mL
- Peptide concentration after 180 min [5]: 2.9 mg/mL
- Peptide concentration after 5 min (pH 10.0, RT, Method 1): 0.2 mg/mL
- Peptide concentration after 180 min (pH 10.0, RT, Method 1): 0.3 mg/mL
- Peptide concentration after 24 h (pH 10.0, RT, Method 1): 1.0 mg/mL
- Peptide concentration after 5 min [6]: 0.4 mg/mL
- Peptide concentration after 180 min [6]: 3.3 mg/mL
- Peptide concentration after 5 min (pH 10.5, RT, Method 1): 0.2 mg/mL
- Peptide concentration after 180 min (pH 10.5, RT, Method 1): 0.3 mg/mL
- Peptide concentration after 24 h (pH 10.5, RT, Method 1): 1.1 mg/mL
- Peptide concentration after 5 min [7]: 0.8 mg/mL
- Peptide concentration after 180 min [7]: 3.4 mg/mL
- Peptide concentration after 5 min (pH 11.0, RT, Method 1): 0.2 mg/mL
- Peptide concentration after 180 min (pH 11.0, RT, Method 1): 0.8 mg/mL
- Peptide concentration after 24 h (pH 11.0, RT, Method 1): 2.3 mg/mL
- GLP-1 peptide concentration (pH 9.50, 180 min, after removal of outliers): 1.9 mg/mL
- GLP-1 peptide concentration (pH 9.50, 24 h, after removal of outliers): >4.0 mg/mL
- GLP-1 peptide concentration (pH 10.00, 5 min, after removal of outliers): 0.4 mg/mL
- GLP-1 peptide concentration (pH 10.00, 5 min, before removal of outliers): 0.4 mg/mL
- GLP-1 peptide concentration (pH 10.00, 180 min, after removal of outliers): 2.4 mg/mL
- GLP-1 peptide concentration (pH 10.00, 180 min, before removal of outliers): 2.4 mg/mL
- GLP-1 peptide concentration (pH 10.00, 24 h, after removal of outliers): 1.0 mg/mL
- GLP-1 peptide concentration (pH 10.00, 24 h, before removal of outliers): 1.0 mg/mL
- GLP-1 peptide concentration (pH 10.50, 5 min, after removal of outliers): 0.6 mg/mL
- GLP-1 peptide concentration (pH 10.50, 5 min, before removal of outliers): 0.6 mg/mL
- GLP-1 peptide concentration (pH 10.50, 180 min, after removal of outliers): 3.1 mg/mL
- GLP-1 peptide concentration (pH 10.50, 180 min, before removal of outliers): 3.1 mg/mL
- GLP-1 peptide concentration (pH 10.50, 24 h, after removal of outliers): 1.2 mg/mL
- GLP-1 peptide concentration (pH 10.50, 24 h, before removal of outliers): 1.2 mg/mL
- GLP-1 peptide concentration (pH 11.00, 5 min, after removal of outliers): 0.6 mg/mL
- GLP-1 peptide concentration (pH 11.00, 5 min, before removal of outliers): 0.6 mg/mL
- GLP-1 peptide concentration (pH 11.00, 180 min, after removal of outliers): 3.5 mg/mL
- GLP-1 peptide concentration (pH 11.00, 180 min, before removal of outliers): 3.5 mg/mL
- GLP-1 peptide concentration (pH 11.00, 24 h, after removal of outliers): 1.2 mg/mL
- GLP-1 peptide concentration (pH 11.00, 24 h, before removal of outliers): 1.2 mg/mL
SMILES: CCCCCCCCCCCCCCCC(=O)N[C@@H](CCC(=O)NCCCC[C@H](NC(=O)[C@H](C)NC(=O)[C@H](C)NC(=O)[C@H](CCC(N)=O)NC(=O)CNC(=O)[C@H](CCC(=O)O)NC(=O)[C@H](CC(C)C)NC(=O)[C@H](Cc1ccc(O)cc1)NC(=O)[C@H](CO)NC(=O)[C@H](CO)NC(=O)[C@@H](NC(=O)[C@H](CC(=O)O)NC(=O)[C@H](CO)NC(=O)[C@@H](NC(=O)[C@H](Cc1ccccc1)NC(=O)[C@@H](NC(=O)CNC(=O)[C@H](CCC(=O)O)NC(=O)[C@H](C)NC(=O)[C@@H](N)Cc1cnc[nH]1)[C@@H](C)O)[C@@H](C)O)C(C)C)C(=O)N[C@@H](CCC(=O)O)C(=O)N[C@@H](Cc1ccccc1)C(=O)N[C@H](C(=O)N[C@@H](C)C(=O)N[C@@H](Cc1c[nH]c2ccccc12)C(=O)N[C@@H](CC(C)C)C(=O)N[C@H](C(=O)N[C@@H](CCCNC(=N)N)C(=O)NCC(=O)N[C@@H](CCCNC(=N)N)C(=O)NCC(=O)O)C(C)C)[C@@H](C)CC)C(=O)O [liraglutide, Arg34,Lys26-(N-epsilon-(gamma-L-glutamyl(N-alfa-hexadecanoyl)))-GLP-1(7-37)]
